Measurements reported in PubChem BioAssay AID1259425 (University of Nebraska Medical Center, 2018).

- Purpose: 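Find knockdowns that reproduce the gene expression pattern seen when KSR1 is lost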 (primary screen)
- Cells: HCT116 human colon cancer cells
- Knock-down reagent: siRNA pool against human genes, 50 nM siRNA
- Read-out: 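After 50 nM siRNA pool, branched-DNA assay measures six marker transcripts per well, minus blank, normalised to the geometric mean of two housekeeping transcripts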
- Reading the numbers: BNIP3L mRNA: higher = more BNIP3L transcript after knockdown; NDRG1 mRNA: higher = more NDRG1 transcript after knockdown; BNIP3 mRNA: higher = more BNIP3 transcript after knockdown
The whole screen tested about 14,000 reagents; shown is a random part of them. Some reagents were tested in more than one well and are listed for each. Not all columns of the deposit are shown. Not stated in the record: the time to read-out.

gene	BNIP3L mRNA, set 1	NDRG1 mRNA, set 1	BNIP3 mRNA, set 1
EFCC1	0.132	0.179	0.271
MAML1	0.0246	0.11	0.208
KCNIP4	0.0929	0.115	0.284
KLRG1	0.0672	0.0761	0.292
PPP6R3	0.106	0.214	0.337
PREX2	0.144	0.494	0.707
TNFRSF25	0.106	0.237	0.478
ARNT	0.0622	0.203	0.295
TSSC4	0.105	0.131	0.218
GSC2	0.184	0.105	0.439
TLR4	0.0774	0.26	0.305
PLA2G7	0.0855	0.0649	0.286
RAB11FIP4	0.126	0.429	0.216
ECH1	0.127	0.108	0.324
BNIP1	0.114	0.236	0.233
DDAH2	0.133	0.283	0.459
FERRY3	0.082	0.0634	0.204
PIK3R2	0.0617	0.286	0.355
UMPS	0.0915	0.3	0.341
RPE	0.0735	0.0693	0.251
PLEC	0.119	0.109	0.314
GPR146	0.092	0.212	0.204
KRR1	0.159	0.135	0.313
YBEY	0.886	1.76	1.4
RPL24	0.0755	0.255	0.283
GRIP2	0.0825	0.352	0.363
FOXK2	0.136	0.33	0.28
IPMK	0.154	0.273	0.383
ADGRL4	0.206	0.159	0.302
IL1B	0.149	0.153	0.236

Reformatted: 4 of the entries above
{"gene": "EFCC1", "BNIP3L mRNA, set 1": 0.132, "NDRG1 mRNA, set 1": 0.179, "BNIP3 mRNA, set 1": 0.271}
{"gene": "MAML1", "BNIP3L mRNA, set 1": 0.0246, "NDRG1 mRNA, set 1": 0.11, "BNIP3 mRNA, set 1": 0.208}
{"gene": "KCNIP4", "BNIP3L mRNA, set 1": 0.0929, "NDRG1 mRNA, set 1": 0.115, "BNIP3 mRNA, set 1": 0.284}
{"gene": "KLRG1", "BNIP3L mRNA, set 1": 0.0672, "NDRG1 mRNA, set 1": 0.0761, "BNIP3 mRNA, set 1": 0.292}

Further records follow:
gene	BNIP3L mRNA, set 1	NDRG1 mRNA, set 1	BNIP3 mRNA, set 1
SNX9	0.104	0.166	0.359
PDHA1	0.0496	0.244	0.236
PPHLN1	0.133	0.221	0.376
SPR	0.11	0.259	0.266
CCL4	0.182	0.201	0.332
GPR20	0.148	0.204	0.326
C8A	0.14	0.171	0.427
DIO1	0.24	0.748	0.391
PANK4	0.15	0.252	0.148
ELOVL3	0.0814	0.205	0.276
TEKT3	0.206	0.243	0.306
FOXE1	0.0827	0.323	0.344
FOXE1	0.17	0.232	0.34
STAMBP	0.131	0.271	0.216
MRPS14	0.112	0.111	0.313
CLN8	0.0601	0.158	0.282
LCT	0.0874	0.179	0.239
UBTD2	0.0578	0.328	0.199
CARD10	0.044	0.0609	0.126
WT1-AS	0.2	0.248	0.448
GDI2	0.0607	0.0722	0.185
SLC35F6	0.111	0.116	0.363
RFPL1	0.0598	0.698	0.384
AFF2	0.0987	0.176	0.304
TTI2	0.0933	0.216	0.326
MC2R	0.171	0.206	0.328
NR2C2AP	0.0407	0.412	0.264
ATF3	0.0633	0.0428	0.308
SMC1B	0.163	0.201	0.31
GCLC	0.0682	0.137	0.228
EPHA2	0.069	0.105	0.245
ADAMDEC1	0.0743	0.159	0.227
SNAP25	0.198	0.333	0.398
